Source: PubChem BioAssay AID602196 (INSERM, 2012)

Aim: 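Modifiers of cisplatin sensitivity in A549 cells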
Cell system: human A549 lung cancer cells
Knock-down reagent: siRNA pair against human genes
Duration: 48 h transfection before cisplatin; time from cisplatin to read-out not stated
Conditions: cisplatin at a dose killing half of control-siRNA cells; exact dose and duration not given
Measured: 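Shift in cisplatin death relative to control siRNA, from -50 (all cells die) to +50 (no cells die); siRNAs harmful on their own scored 0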
Reading the numbers: two-siRNA summed score (-2 to +2): higher = both siRNAs protect from cisplatin killing; -2 means both sensitise; mean protection from cisplatin (shift in death): higher = protection from cisplatin killing
Rule for the call: 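siRNAs harmful alone (LDH or WST-1) get 0; others get +1 for less and -1 for more cisplatin killing; genes are active when the two siRNAs give the same sign, summing to ±2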
Meaning of the calls: active = both siRNAs shift cisplatin killing the same way; inactive = no consistent shift, or siRNA harmful alone
This is one part, drawn at random, of about 23,000 reagents tested. 455 of them (2%) count as active. 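Active includes both protection and sensitisation; some change values fall well beyond the stated -50 to +50 range.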 Entries without a mark were called inactive. Not all columns of the deposit are shown. Not stated in the record: the amount of reagent.

What is on record for PLAAT5 (phospholipase A and acyltransferase 5)?
two-siRNA summed score (-2 to +2): 0; mean protection from cisplatin (shift in death) (%): 10.1

With PLSCR2 (phospholipid scramblase 2), what was measured?
two-siRNA summed score (-2 to +2): 0; mean protection from cisplatin (shift in death) (%): 5.1

How did the screen score MARVELD2 (MARVEL domain containing 2)?
two-siRNA summed score (-2 to +2): 0; mean protection from cisplatin (shift in death) (%): 5.9

Which result is listed for LOC440592?
two-siRNA summed score (-2 to +2): 0; mean protection from cisplatin (shift in death) (%): 15.2

For TPTE (transmembrane phosphatase with tensin homology), what was measured?
two-siRNA summed score (-2 to +2): 0; mean protection from cisplatin (shift in death) (%): -0.4

For RASSF5 (Ras association domain family member 5), how do the results read?
two-siRNA summed score (-2 to +2): 1; mean protection from cisplatin (shift in death) (%): 12.6

With LOC339065, what does the deposit list?
two-siRNA summed score (-2 to +2): 0; mean protection from cisplatin (shift in death) (%): 10.3

For HMGB3 (high mobility group box 3), how do the results read?
two-siRNA summed score (-2 to +2): 0; mean protection from cisplatin (shift in death) (%): 1.6

How did the screen score CA5BP1 (carbonic anhydrase 5B pseudogene 1)?
two-siRNA summed score (-2 to +2): 0; mean protection from cisplatin (shift in death) (%): 19

For MPC1L, what was measured?
two-siRNA summed score (-2 to +2): -1; mean protection from cisplatin (shift in death) (%): -2.1

With TRIM38 (tripartite motif containing 38), what does the deposit list?
two-siRNA summed score (-2 to +2): 0; mean protection from cisplatin (shift in death) (%): -1.5

5 entries from above, reformatted.
{"gene knocked down":"TPTE (transmembrane phosphatase with tensin homology)","two-siRNA summed score (-2 to +2)":0,"mean protection from cisplatin (shift in death) (%)":-0.4}
{"gene knocked down":"RASSF5 (Ras association domain family member 5)","two-siRNA summed score (-2 to +2)":1,"mean protection from cisplatin (shift in death) (%)":12.6}
{"gene knocked down":"LOC339065","two-siRNA summed score (-2 to +2)":0,"mean protection from cisplatin (shift in death) (%)":10.3}
{"gene knocked down":"HMGB3 (high mobility group box 3)","two-siRNA summed score (-2 to +2)":0,"mean protection from cisplatin (shift in death) (%)":1.6}
{"gene knocked down":"CA5BP1 (carbonic anhydrase 5B pseudogene 1)","two-siRNA summed score (-2 to +2)":0,"mean protection from cisplatin (shift in death) (%)":19}

Next results:
What is on record for SPATA33 (spermatogenesis associated 33)?
two-siRNA summed score (-2 to +2): 0; mean protection from cisplatin (shift in death) (%): 6

Which result is listed for GUCA2B (guanylate cyclase activator 2B)?
two-siRNA summed score (-2 to +2): -1; mean protection from cisplatin (shift in death) (%): -23.8

For PTGR1 (prostaglandin reductase 1), what was measured?
two-siRNA summed score (-2 to +2): -1; mean protection from cisplatin (shift in death) (%): -7.7

Which result is listed for FBXO11 (F-box protein 11)?
two-siRNA summed score (-2 to +2): 0; mean protection from cisplatin (shift in death) (%): 4.5

For LOC442726, how do the results read?
two-siRNA summed score (-2 to +2): 0; mean protection from cisplatin (shift in death) (%): 25.6

How did the screen score PTPRK (protein tyrosine phosphatase receptor type K)?
two-siRNA summed score (-2 to +2): 0; mean protection from cisplatin (shift in death) (%): -3.9

For INE1 (inactivation escape 1), how do the results read?
two-siRNA summed score (-2 to +2): -1; mean protection from cisplatin (shift in death) (%): -2.2

With OR51S1 (olfactory receptor family 51 subfamily S member 1), what does the deposit list?
two-siRNA summed score (-2 to +2): 0; mean protection from cisplatin (shift in death) (%): 0.8

What is on record for PARP10 (poly(ADP-ribose) polymerase family member 10)?
two-siRNA summed score (-2 to +2): 0; mean protection from cisplatin (shift in death) (%): -1.5

How did the screen score OR4K17 (olfactory receptor family 4 subfamily K member 17)?
two-siRNA summed score (-2 to +2): 0; mean protection from cisplatin (shift in death) (%): 7.1

For LHCGR (luteinizing hormone/choriogonadotropin receptor), how do the results read?
two-siRNA summed score (-2 to +2): 0; mean protection from cisplatin (shift in death) (%): 1.6

With IGHV3OR16-12 (immunoglobulin heavy variable 3/OR16-12 (non-functional)), what was measured?
two-siRNA summed score (-2 to +2): 0; mean protection from cisplatin (shift in death) (%): 8.6

What did the screen give for SASH1 (SAM and SH3 domain containing 1)?
two-siRNA summed score (-2 to +2): 0; mean protection from cisplatin (shift in death) (%): 8.8

For PLEC (plectin), what does the deposit list?
two-siRNA summed score (-2 to +2): 0; mean protection from cisplatin (shift in death) (%): -1.2

With MPP3 (MAGUK p55 scaffold protein 3), how do the results read?
two-siRNA summed score (-2 to +2): -1; mean protection from cisplatin (shift in death) (%): -20.2

How did the screen score DPEP2 (dipeptidase 2)?
two-siRNA summed score (-2 to +2): 1; mean protection from cisplatin (shift in death) (%): 20.9

Which result is listed for OR52E6 (olfactory receptor family 52 subfamily E member 6)?
two-siRNA summed score (-2 to +2): 0; mean protection from cisplatin (shift in death) (%): 8.3

With SLC10A2, what was measured?
two-siRNA summed score (-2 to +2): 0; mean protection from cisplatin (shift in death) (%): -4.5

What did the screen give for MEX3D (mex-3 RNA binding family member D)?
two-siRNA summed score (-2 to +2): 1; mean protection from cisplatin (shift in death) (%): 19.8

How did the screen score SLC26A1?
two-siRNA summed score (-2 to +2): 0; mean protection from cisplatin (shift in death) (%): 4.3
